Data from paper PMC10571979.
These are yes or no findings as the source states them, for the method shown. In cells and extracts the contact can be indirect. Some binding calls cover weakened binding; strength is not graded here. For some assays here: Tags and fused reporters may be left off the sequences shown.

Protein sequences, listed by entry. Tags and fused reporters are not part of them.
UniProt Q07157: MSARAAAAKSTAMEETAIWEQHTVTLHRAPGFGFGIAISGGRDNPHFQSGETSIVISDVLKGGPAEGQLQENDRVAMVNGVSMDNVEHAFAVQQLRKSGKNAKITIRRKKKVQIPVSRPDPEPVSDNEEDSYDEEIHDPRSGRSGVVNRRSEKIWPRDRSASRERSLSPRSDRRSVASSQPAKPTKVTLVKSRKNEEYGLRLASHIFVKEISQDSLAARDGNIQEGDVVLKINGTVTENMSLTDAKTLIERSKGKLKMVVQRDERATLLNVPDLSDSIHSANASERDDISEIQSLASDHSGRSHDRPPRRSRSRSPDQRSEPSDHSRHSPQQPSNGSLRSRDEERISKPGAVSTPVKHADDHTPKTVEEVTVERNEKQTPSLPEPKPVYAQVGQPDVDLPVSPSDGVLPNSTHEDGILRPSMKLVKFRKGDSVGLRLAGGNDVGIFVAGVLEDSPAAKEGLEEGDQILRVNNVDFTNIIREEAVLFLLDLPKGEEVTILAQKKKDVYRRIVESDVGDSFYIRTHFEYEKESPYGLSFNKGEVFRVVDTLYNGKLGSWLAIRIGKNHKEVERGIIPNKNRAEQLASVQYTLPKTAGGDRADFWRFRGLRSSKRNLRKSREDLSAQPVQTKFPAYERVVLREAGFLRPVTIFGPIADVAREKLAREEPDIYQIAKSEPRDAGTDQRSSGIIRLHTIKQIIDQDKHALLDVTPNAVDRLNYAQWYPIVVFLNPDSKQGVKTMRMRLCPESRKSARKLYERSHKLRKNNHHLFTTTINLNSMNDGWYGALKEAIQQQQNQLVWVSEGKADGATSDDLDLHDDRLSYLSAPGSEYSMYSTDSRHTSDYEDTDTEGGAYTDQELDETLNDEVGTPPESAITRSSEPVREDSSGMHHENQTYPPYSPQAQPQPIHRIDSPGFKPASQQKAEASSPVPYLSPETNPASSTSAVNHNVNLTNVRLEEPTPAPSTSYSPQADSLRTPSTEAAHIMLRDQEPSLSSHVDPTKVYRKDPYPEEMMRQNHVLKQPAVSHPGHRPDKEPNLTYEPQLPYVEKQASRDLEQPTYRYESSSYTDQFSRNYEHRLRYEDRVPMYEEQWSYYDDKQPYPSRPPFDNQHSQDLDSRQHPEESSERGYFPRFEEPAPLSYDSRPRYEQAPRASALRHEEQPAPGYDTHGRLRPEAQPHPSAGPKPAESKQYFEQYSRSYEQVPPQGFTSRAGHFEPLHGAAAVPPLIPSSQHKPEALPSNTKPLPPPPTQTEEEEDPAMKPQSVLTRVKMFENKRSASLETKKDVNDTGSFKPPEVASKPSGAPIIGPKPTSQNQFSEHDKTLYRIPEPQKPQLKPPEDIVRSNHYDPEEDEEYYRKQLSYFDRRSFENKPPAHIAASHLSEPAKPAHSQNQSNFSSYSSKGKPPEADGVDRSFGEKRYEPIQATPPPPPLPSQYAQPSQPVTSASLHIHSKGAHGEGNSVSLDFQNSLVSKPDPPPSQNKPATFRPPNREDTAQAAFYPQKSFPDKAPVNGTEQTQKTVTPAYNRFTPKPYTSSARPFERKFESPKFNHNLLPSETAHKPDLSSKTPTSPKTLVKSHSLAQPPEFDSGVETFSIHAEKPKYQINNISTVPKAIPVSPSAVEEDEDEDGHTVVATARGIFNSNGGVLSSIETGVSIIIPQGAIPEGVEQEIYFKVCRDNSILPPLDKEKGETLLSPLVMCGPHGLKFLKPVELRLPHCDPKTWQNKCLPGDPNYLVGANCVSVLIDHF

T1: FLAG-CLDN5 (FLAG-tagged human full-length CLDN5) (human) (UniProt O00501)
T1 sequence: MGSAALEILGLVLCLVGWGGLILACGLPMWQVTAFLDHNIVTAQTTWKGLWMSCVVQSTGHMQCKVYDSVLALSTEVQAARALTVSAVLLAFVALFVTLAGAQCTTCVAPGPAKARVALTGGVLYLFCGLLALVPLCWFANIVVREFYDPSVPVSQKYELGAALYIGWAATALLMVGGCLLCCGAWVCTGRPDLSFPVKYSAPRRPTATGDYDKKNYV

T2: disheveled-1 (DVL1), endogenous in bovine retinal endothelial cells (bovine (endogenous in BRECs)) (UniProt F1N6M9)
T2 sequence: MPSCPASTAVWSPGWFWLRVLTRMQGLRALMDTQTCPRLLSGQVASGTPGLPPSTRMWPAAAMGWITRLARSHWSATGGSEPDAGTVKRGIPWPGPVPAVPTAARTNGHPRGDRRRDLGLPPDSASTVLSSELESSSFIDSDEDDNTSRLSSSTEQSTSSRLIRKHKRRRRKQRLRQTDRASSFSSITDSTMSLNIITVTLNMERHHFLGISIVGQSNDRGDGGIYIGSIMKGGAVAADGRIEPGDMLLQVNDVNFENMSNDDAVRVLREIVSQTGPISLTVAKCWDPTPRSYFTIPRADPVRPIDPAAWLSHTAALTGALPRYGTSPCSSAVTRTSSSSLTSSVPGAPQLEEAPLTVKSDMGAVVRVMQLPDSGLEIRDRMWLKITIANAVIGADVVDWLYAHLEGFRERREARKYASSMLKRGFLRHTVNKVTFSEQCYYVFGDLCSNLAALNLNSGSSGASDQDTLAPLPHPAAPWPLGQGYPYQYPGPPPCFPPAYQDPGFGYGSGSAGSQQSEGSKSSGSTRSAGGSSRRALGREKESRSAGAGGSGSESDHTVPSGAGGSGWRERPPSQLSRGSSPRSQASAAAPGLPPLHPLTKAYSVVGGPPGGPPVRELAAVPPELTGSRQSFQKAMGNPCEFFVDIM


Assays:
[1] = target: T1, FLAG-CLDN5 (FLAG-tagged human full-length CLDN5) (human); test: co-IP; HEK-293 co-transfected with FLAG-CLDN5 or FLAG-CLDN5-ΔPDZBM and HA-DVL1 or HA-DVL1-ΔC7; IP with FLAG antibody, blot for FLAG, HA or endogenous ZO-1; 2% NP-40 buffer
[2] = target: T2, disheveled-1 (DVL1), endogenous in bovine retinal endothelial cells (bovine (endogenous in BRECs)); test: co-IP; endogenous proteins in BREC lysate (co-IP buffer with 2% NP-40); IP with the Pan-DVL antibody (detects DVL1 and DVL3), blot for CLDN5 and ZO-1; monolayers treated with vehicle, norrin 40 ng/mL, VEGF 50 ng/mL or both for 72 h
[3] = target: T1, FLAG-CLDN5 (FLAG-tagged human full-length CLDN5) (human); test: co-IP; competition: HEK-293 co-transfected with FLAG-CLDN5, HA-DVL1-WT and increasing doses of HA-DVL1-CT plasmid; IP with FLAG antibody, blot for HA; 2% NP-40 buffer
GFP-ZO-1 = GFP-ZO-1 (UniProt Q07157); test: co-IP; HEK-293 co-transfected with GFP-ZO-1 and HA-DVL1-WT, HA-DVL1-WT plus HA-DVL1-CT, HA-DVL1-ΔC7, HA-DVL3-WT or HA-DVL3-ΔC7; IP of ZO-1 with GFP antibody, blot for HA; 2% NP-40 buffer

binding [1] | binding [2] | binding [3] | binding (GFP-ZO-1) | Molecule
binds |  |  |  | ZO-1, endogenous in HEK-293 cells (from UniProt Q07157 1-1748)
 | binds |  |  | claudin-5 (CLDN5), endogenous in bovine retinal endothelial cells (protein, UniProt Q2HJ22 1-218) MGSAALEILGLVLCLVGWVGLILACGLPMWQVTAFLDHNIVTAQTTWKGLWMSCVVQSTGHMQCKVYDSVLALSPEVQAARALTVGAVLLALVALFVTLAGAQCTTCVAPGPAKARVALTGGALYALCGLLALVPLCWFANIVVREFYDPTVPMSQKYELGAALYIGWAASALLMCGGGLVCCGAWVCTGRPDFSFPVKYSASRRPTATGDYDKKNYV
binds |  | binds | binds | HA-DVL1-WT (human full-length DVL1) (protein, UniProt O14640 1-695) MAETKIIYHMDEEETPYLVKLPVAPERVTLADFKNVLSNRPVHAYKFFFKSMDQDFGVVKEEIFDDNAKLPCFNGRVVSWLVLAEGAHSDAGSQGTDSHTDLPPPLERTGGIGDSRPPSFHPNVASSRDGMDNETGTESMVSHRRERARRRNREEAARTNGHPRGDRRRDVGLPPDSASTALSSELESSSFVDSDEDGSTSRLSSSTEQSTSSRLIRKHKRRRRKQRLRQADRASSFSSITDSTMSLNIVTVTLNMERHHFLGISIVGQSNDRGDGGIYIGSIMKGGAVAADGRIEPGDMLLQVNDVNFENMSNDDAVRVLREIVSQTGPISLTVAKCWDPTPRSYFTVPRADPVRPIDPAAWLSHTAALTGALPRYGTSPCSSAVTRTSSSSLTSSVPGAPQLEEAPLTVKSDMSAVVRVMQLPDSGLEIRDRMWLKITIANAVIGADVVDWLYTHVEGFKERREARKYASSLLKHGFLRHTVNKITFSEQCYYVFGDLCSNLATLNLNSGSSGTSDQDTLAPLPHPAAPWPLGQGYPYQYPGPPPCFPPAYQDPGFSYGSGSTGSQQSEGSKSSGSTRSSRRAPGREKERRAAGAGGSGSESDHTAPSGVGSSWRERPAGQLSRGSSPRSQASATAPGLPPPHPTTKAYTVVGGPPGGPPVRELAAVPPELTGSRQSFQKAMGNPCEFFVDIM
